Results are given in words; binding and its absence hold for the method and conditions named. Binding calls can cover weak binding; strength is not graded here. For some of these results: Binding seen in cells or lysates may run through a third protein. For some of these results: Sequences can lack the tags named with a protein.
Experiments:
[1] = target: T1, OsGRF4 (rice (Oryza sativa ssp. japonica, Nipponbare)) (UniProt Q6ZIK5); experiment: two-hybrid; prey vector pGADT7 and bait vector pGBKT7 co-transformed into yeast AH109; grown on SD-Leu-Trp, interaction tested on SD-Ade-His-Leu-Trp solid media
T1 sequence: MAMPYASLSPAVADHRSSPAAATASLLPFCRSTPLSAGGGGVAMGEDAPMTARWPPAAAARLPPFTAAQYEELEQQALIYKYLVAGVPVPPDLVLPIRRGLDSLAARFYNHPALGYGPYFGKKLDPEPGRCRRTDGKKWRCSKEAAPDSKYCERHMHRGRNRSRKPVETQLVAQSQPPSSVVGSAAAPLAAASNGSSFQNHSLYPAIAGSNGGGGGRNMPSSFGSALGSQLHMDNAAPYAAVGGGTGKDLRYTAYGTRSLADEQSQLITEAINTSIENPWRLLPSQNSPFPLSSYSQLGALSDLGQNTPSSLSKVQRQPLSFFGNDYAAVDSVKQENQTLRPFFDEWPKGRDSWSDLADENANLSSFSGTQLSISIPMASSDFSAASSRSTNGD

[2] = target: T2, OsGRF6 (rice (Oryza sativa ssp. japonica, Nipponbare)) (UniProt Q6AWY3); experiment: as above
T2 sequence: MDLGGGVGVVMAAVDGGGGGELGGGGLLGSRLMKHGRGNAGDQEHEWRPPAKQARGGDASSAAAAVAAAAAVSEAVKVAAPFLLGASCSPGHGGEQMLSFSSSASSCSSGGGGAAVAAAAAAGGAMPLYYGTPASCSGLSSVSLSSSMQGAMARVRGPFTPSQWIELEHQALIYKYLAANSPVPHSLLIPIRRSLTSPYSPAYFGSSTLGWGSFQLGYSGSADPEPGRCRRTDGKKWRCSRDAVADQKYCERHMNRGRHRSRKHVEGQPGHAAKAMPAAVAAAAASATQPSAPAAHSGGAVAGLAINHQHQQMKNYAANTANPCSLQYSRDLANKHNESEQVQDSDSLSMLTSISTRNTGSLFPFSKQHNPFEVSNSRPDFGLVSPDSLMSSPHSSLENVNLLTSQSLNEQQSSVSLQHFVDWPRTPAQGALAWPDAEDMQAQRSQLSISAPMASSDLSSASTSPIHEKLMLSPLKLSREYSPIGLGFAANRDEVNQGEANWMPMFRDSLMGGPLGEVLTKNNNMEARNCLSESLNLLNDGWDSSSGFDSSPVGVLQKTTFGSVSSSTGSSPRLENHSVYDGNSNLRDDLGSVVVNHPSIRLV

[3] = target: T3, cYFP-OsGRF4 (rice (Oryza sativa ssp. japonica, Nipponbare)) (UniProt Q6ZIK5); experiment: split reporter; BiFC: nYFP and cYFP fusions co-infiltrated by Agrobacteria into N. benthamiana leaves; YFP signal by confocal microscopy
T3 sequence: T1 sequence

[4] = target: T4, cYFP-OsGRF6 (rice (Oryza sativa ssp. japonica, Nipponbare)) (UniProt Q6AWY3); experiment: as above
T4 sequence: T2 sequence

OsGIF1 was tested, and the binding [1] was “binds”.
In the case of OsGIF3, the binding [1] is reported as “binds” and the binding [2] is reported as “binds”.
With nYFP-OsGIF1 the binding [3] was “binds”.
nYFP-OsGIF2 was tested, and the binding [3] was “binds”.
For nYFP-OsGIF3, the binding [3] was “binds” and the binding [4] was “binds”.

Source: article PMC8288854
